The test addresses λN-HA tagged full length Drosophila FMRP (dFMRP) (Drosophila) (UniProt Q9NFU0). In words: co-IP.

Sequences of proteins named here, by UniProt entry; tags and fusion partners are left off.
UniProt Q9NFU0: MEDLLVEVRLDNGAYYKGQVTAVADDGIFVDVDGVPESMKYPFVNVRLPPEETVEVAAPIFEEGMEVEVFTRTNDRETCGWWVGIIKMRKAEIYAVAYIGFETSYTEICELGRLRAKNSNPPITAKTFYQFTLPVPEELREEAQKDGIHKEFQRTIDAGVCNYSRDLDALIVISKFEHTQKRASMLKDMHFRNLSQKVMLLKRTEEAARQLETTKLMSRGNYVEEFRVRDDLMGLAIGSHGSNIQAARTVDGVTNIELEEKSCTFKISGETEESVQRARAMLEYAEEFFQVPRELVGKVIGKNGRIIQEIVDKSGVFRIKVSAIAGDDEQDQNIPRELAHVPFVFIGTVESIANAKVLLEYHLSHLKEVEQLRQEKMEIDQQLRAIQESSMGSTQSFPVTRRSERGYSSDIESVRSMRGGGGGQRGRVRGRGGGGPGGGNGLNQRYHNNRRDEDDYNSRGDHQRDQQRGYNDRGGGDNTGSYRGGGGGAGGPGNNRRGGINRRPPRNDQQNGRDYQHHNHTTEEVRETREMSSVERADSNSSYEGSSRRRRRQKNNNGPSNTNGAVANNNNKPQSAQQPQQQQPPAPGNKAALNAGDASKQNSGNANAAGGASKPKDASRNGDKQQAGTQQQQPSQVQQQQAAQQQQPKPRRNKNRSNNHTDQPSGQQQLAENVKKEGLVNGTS
UniProt Q32KD4: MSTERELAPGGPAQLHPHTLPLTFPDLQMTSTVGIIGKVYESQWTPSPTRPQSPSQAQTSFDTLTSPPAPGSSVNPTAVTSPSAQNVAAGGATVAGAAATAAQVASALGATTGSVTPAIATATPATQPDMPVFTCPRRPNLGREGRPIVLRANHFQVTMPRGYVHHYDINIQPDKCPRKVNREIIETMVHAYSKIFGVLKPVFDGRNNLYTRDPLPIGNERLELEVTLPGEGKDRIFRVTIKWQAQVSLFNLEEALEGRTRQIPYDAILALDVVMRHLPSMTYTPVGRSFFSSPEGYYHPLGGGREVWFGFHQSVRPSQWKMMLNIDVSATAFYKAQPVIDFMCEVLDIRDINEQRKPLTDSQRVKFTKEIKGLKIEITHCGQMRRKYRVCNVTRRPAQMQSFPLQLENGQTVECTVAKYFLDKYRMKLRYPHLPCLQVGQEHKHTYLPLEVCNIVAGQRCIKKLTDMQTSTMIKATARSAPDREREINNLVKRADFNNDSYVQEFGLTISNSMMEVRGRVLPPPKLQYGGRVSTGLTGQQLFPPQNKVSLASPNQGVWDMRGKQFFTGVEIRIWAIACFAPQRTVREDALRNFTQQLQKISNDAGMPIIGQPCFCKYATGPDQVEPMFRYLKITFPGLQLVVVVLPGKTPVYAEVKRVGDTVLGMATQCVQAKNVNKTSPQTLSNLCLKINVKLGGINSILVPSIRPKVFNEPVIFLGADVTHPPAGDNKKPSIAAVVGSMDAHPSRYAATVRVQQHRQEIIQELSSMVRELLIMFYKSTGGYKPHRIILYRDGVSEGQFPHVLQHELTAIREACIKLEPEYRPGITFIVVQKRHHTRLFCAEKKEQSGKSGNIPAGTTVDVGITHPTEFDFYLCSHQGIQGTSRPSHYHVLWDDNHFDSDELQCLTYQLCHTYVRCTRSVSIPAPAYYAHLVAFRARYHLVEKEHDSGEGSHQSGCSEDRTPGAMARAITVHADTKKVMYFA

Results are given in words; binding and its absence hold for the method and conditions named. Binding seen in cells or lysates may run through a third protein. Some entries that bind do so weakly or less than the wild type. Where a sequence is shown, tags or fusion partners need not be part of it.

For two molecules, binding results are on record in doi:10.1101/2023.05.03.539280.

In the case of “FLAG-tagged AGO1 (from UniProt Q32KD4 1-984)”, the binding result is “binds”.

B1: FLAG-tagged GW182 (protein, UniProt Q8SY33 1-1384)
chain: MREALFSQDGWGCQHVNQDTNWEVPSSPEPANKDAPGPPMWKPSINNGTDLWESNLRNGGQPAAQQVPKPSWGHTPSSNLGGTWGEDDDGADSSSVWTGGAVSNAGSGAAVGVNQAGVNVGPGGVVSSGGPQWGQGVVGVGLGSTGGNGSSNITGSSGVATGSSGNSSNAGNGWGDPREIRPLGVGGSMDIRNVEHRGGNGSGATSSDPRDIRMIDPRDPIRGDPRGISGRLNGTSEMWGHHPQMSHNQLQGINKMVGQSVATASTSVGTSGSGIGPGGPGPSTVSGNIPTQWGPAQPVSVGVSGPKDMSKQISGWEEPSPPPQRRSIPNYDDGTSLWGQQTRVPAASGHWKDMTDSIGRSSHLMRGQSQTGGIGIAGVGNSNVPVGANPSNPISSVVGPQARIPSVGGVQHKPDGGAMWVHSGNVGGRNNVAAVTTWGDDTHSVNVGAPSSGSVSSNNWVDDKSNSTLAQNSWSDPAPVGVSWGNKQSKPPSNSASSGWSTAAGVVDGVDLGSEWNTHGGIIGKSQQQQKLAGLNVGMVNVINAEIIKQSKQYRILVENGFKKEDVERALVIANMNIEEAADMLRANSSLSMDGWRRHDESLGSYADHNSSTSSGGFAGRYPVNSGQPSMSFPHNNLMNNMGGTAVTGGNNNTNMTALQVQKYLNQGQHGVAVGPQAVGNSSAVSVGFGQNTSNAAVAGAASVNIAANTNNQPSGQQIRMLGQQIQLAIHSGFISSQILTQPLTQTTLNLLNQLLSNIKHLQAAQQSLTRGGNVNPMAVNVAISKYKQQIQNLQNQINAQQAVYVKQQNMQPTSQQQQPQQQQLPSVHLSNSGNDYLRGHDAINNLQSNFSELNINKPSGYQGASNQQSRLNQWKLPVLDKEINSDSTEFSRAPGATKQNLTANTSNINSLGLQNDSTWSTGRSIGDGWPDPSSDNENKDWSVAQPTSAATAYTDLVQEFEPGKPWKGSQIKSIEDDPSITPGSVARSPLSINSTPKDADIFANTGKNSPTDLPPLSLSSSTWSFNPNQNYPSHSWSDNSQQCTATSELWTSPLNKSSSRGPPPGLTANSNKSANSNASTPTTITGGANGWLQPRSGGVQTTNTNWTGGNTTWGSSWLLLKNLTAQIDGPTLRTLCMQHGPLVSFHPYLNQGIALCKYTTREEANKAQMALNNCVLANTTIFAESPSENEVQSIMQHLPQTPSSTSSSGTSGGNVGGVGTSANNANSGSAACLSGNNSGNGNGSASGAGSGNNGNSSCNNSAAGGGSSSNNTITTVANSNLVGSSGSVSNSSGVTANSSTVSVVSCTASGNSINGAGTANSSGSKSSANNLASGQSSASNLTNSTNSTWRQTSQNQALQSQSRPSGREADFDYISLVYSIVDD
Regarding B1, the binding result is recorded as “binds”.
